Data as given in US20040213780.
Results from cells or extracts need not show a direct contact.

Protein sequences, listed by entry. Tags and fused reporters are not part of them. Residues count along the entry.
UniProt P08047, 2-785: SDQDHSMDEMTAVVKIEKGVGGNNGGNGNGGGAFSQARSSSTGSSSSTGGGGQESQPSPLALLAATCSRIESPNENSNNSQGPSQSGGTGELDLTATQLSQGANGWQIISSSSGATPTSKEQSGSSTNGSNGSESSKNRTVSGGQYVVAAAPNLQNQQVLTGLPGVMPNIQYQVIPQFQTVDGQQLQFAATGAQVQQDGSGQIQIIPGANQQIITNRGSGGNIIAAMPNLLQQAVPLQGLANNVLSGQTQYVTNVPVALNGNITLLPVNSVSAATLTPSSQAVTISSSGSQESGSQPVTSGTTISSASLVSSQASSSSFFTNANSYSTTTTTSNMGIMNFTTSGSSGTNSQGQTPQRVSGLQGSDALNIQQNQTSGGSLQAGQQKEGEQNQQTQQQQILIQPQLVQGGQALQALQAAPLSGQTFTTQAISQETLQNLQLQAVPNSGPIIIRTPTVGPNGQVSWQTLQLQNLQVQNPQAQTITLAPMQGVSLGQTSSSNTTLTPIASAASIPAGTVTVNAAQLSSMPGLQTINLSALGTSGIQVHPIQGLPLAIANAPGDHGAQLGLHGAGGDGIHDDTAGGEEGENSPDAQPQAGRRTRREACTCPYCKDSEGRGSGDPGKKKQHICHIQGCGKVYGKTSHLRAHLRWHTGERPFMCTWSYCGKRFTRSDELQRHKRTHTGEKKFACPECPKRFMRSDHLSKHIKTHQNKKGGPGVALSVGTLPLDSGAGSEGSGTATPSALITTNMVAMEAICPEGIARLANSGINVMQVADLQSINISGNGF
UniProt Q01714, 2-786: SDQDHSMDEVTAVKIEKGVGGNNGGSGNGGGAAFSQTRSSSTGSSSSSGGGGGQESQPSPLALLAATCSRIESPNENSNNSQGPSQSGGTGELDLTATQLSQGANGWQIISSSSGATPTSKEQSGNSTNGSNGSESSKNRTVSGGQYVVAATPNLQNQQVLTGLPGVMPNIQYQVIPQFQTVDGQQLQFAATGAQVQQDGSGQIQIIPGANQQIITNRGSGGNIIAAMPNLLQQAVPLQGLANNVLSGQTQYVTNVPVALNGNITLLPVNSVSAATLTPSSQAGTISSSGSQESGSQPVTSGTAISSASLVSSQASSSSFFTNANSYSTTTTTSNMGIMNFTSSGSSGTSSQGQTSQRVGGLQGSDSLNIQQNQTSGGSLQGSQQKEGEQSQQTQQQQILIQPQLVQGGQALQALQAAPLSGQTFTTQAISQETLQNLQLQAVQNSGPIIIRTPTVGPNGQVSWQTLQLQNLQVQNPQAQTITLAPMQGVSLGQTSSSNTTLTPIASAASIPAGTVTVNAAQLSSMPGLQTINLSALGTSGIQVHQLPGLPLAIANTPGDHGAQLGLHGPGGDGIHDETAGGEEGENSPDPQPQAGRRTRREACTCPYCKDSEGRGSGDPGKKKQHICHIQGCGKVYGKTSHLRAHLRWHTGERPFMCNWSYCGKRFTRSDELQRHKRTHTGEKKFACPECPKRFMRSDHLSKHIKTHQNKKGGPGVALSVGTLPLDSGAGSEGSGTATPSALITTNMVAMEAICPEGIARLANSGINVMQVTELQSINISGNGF

Tests used:
[1] = biological target: Sp1 (endogenous, brain nuclear extract) (Homo sapiens) (UniProt P08047); assay: EMSA; conditions: caudate nuclear extract; supershifted with Sp1 antibody; binding decreased 39% in grade 1 and 48% in grade 4 HD caudate, unchanged in hippocampus; protein in an extract; label: labeled (autoradiography)
[2] = biological target: Sp1 (endogenous, striatal neuron nuclear extract) (Rattus norvegicus) (UniProt Q01714); assay: EMSA; conditions: nuclear extract of transfected primary striatal neurons; binding 55% lower with HttQ75 than HttQ17; 100-fold competitor used; protein in an extract; label: labeled (autoradiography)

CAGGGTGACCCCGCCCCCTCCTCC (double strand) [D2 dopamine receptor promoter Sp1 fragment]
binding result [1]: binds
binding result [2]: binds
